Some of the results follow. These are further read-outs of the screen, such as a control signal, another cell line or another target. No call is given for them. Most of these compounds were active or inconclusive in the main read-out, so they are no random draw. Potencies come from curve fits of mixed quality, noted in brackets.
Test: qHTS Assay for Modulators of Lamin A Splicing
Settings: HeLa LMNA splicing GFP/RFP minigene ratio, 48 h
Outline: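 S3 HeLa stable clones carrying a lamin A-EGFP splicing minigene plus DsRed2 were seeded at 600 cells/well in Opti-MEM with 2% FBS, pin-dosed and incubated 48 h at 37°C. Acumen cytometry (488 nm) gave the GFP/RFP total-intensity ratio.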

[1] = measured here: GFP splicing reporter channel
[2] = measured here: RFP viability control channel

For `COc1c(F)c(F)c(C(=O)Nc2ccc(N3CCN(C(C)=O)CC3)c(Cl)c2)c(F)c1F`, the AC50 [1] was 12.6 µM [rising, partial curve] and the AC50 [2] was 20 µM [rising, single point].

For `COc1ccc(-c2ncn(CCC#N)c2[N+](=O)[O-])cc1`, the AC50 [2] was 11.2 µM [rising, single point].

In the case of `C#CC(=O)N(c1ccc(OC)cc1OC)C(C(=O)NC1CCCC1)c1cccs1` (stereo not drawn), the AC50 [1] is reported as 12.6 µM [falling, partial curve, poor fit] and the AC50 [2] is reported as 31.6 µM [falling, single point].

With `COc1cc(CN(C)C)cc(C=O)c1O` the AC50 [1] was 12.6 µM [falling, partial curve] and the AC50 [2] was 31.6 µM [falling, partial curve, poor fit].

In the case of `c1ccc(CN2CCC(Nc3nc(-c4cccnc4)nc4ccccc34)CC2)cc1`, the AC50 [1] is reported as 14.1 µM [falling, single point].

With `O=C(Nc1ccc(Cl)cc1)N(Cc1cccs1)Cc1cccs1` the AC50 [1] was 35.5 µM [rising, single point] and the AC50 [2] was 35.5 µM [rising, single point].

With `Cc1ccc(CNC(=O)CSc2nc3ccccc3nc2Cc2ccc(C)cc2)cc1` the AC50 [1] was 8.91 µM [rising, partial curve, poor fit].

In the case of `Cc1ccc(NC(=O)CN2C(=O)S/C(=C/c3ccc(-c4cccc(C(=O)O)c4)o3)C2=O)cc1`, the AC50 [1] is reported as 0.01 µM [falling, full curve, poor fit].

With `O=C(c1ccc(Cl)c(S(=O)(=O)N2CCCC2)c1)N1CCN(c2ccccc2F)CC1` the AC50 [1] was 0.01 µM [falling, full curve, poor fit].

With `Cc1c(C(=O)c2ccc(Cl)c(Cl)c2)cnc2cc3c(cc12)OCO3` the AC50 [1] was 35.5 µM [rising, single point] and the AC50 [2] was 35.5 µM [rising, single point].

For `COc1ccc(S(=O)(=O)NCC(c2ccco2)S(=O)(=O)c2cccs2)cc1F` (stereo not drawn), the AC50 [1] was 10 µM [falling, partial curve, poor fit].

With `COc1ccc(-c2nn3c(-c4ccccc4)nnc3s2)cc1OC` the AC50 [1] was 11.2 µM [rising, partial curve] and the AC50 [2] was 14.1 µM [rising, partial curve].

In the case of `CCn1c(=O)cc(SCC(=O)N2CCN(C(=O)c3ccco3)CC2)c2ccccc21`, the AC50 [1] is reported as 10 µM [falling, partial curve, poor fit].

In the case of `COc1cc(C2C(C#N)=C(N)N(c3ccc(F)cc3)C3=C2S(=O)(=O)CC3)ccc1O` (stereo not drawn), the AC50 [2] is reported as 14.1 µM [rising, single point].

For `COc1ccc(-c2nc(N)n(C(=O)c3cccs3)n2)cc1`, the AC50 [2] was 1.41 µM [falling, partial curve, poor fit].

For `Cc1csc(NC(=O)c2cc3c(s2)-c2ccccc2OC3)n1`, the AC50 [2] was 11.2 µM [rising, partial curve].

For `O=C(c1ccccc1)N1CCc2cc(CNS(=O)(=O)c3ccc(Cl)s3)ccc21`, the AC50 [2] was 3.98 µM [falling, partial curve].

For `CCc1ccc(N(CC)C(=O)c2ccc3c(Cl)c4c(nc3c2)CCC4)cc1`, the AC50 [1] was 12.6 µM [rising, single point] and the AC50 [2] was 11.2 µM [rising, partial curve, poor fit].

With `Cn1nc(C(F)(F)F)cc1-c1ccc(/C=C(\C#N)C(=O)c2cccc(C(F)(F)F)c2)s1` the AC50 [2] was 0.01 µM [falling, full curve, poor fit].

With `CCOC(=O)C1CCN(c2ncnc3c2[nH]c2cccc(OC)c23)CC1` the AC50 [1] was 7.94 µM [rising, partial curve].

In the case of `CN(C)/C=C(\C=N\OCc1ccc(Cl)cc1Cl)C(=O)Nc1ccc(Cl)c(Cl)c1`, the AC50 [2] is reported as 31.6 µM [rising, single point].

In the case of `CSc1ccc(/C=N/n2c(C)nnc2C)cc1`, the AC50 [2] is reported as 1.58 µM [rising, partial curve, poor fit].

In the case of `CCCOc1ccc(C(=O)NC(=S)Nc2nc(C)c(C(=O)N(C)C)s2)cc1`, the AC50 [1] is reported as 11.2 µM [rising, single point] and the AC50 [2] is reported as 17.8 µM [rising, single point].

With `CN(C)/C=C/C(=O)c1ccc(Br)cc1` the AC50 [1] was 0.0282 µM [falling, full curve, poor fit] and the AC50 [2] was 0.0178 µM [falling, full curve, poor fit].

For `Oc1c(CN2CCOCC2)cc(COCc2ccccc2)c2cccnc12`, the AC50 [2] was 6.31 µM [rising, partial curve].

With `NC[C@@H]1O[C@@H](O[C@H]2[C@H](O)[C@H](O[C@@H]3O[C@H](CO)[C@@H](O)[C@H](N)[C@@H]3O)[C@@H](N)C[C@H]2N)[C@H](N)C[C@@H]1O` the AC50 [1] was 0.1 µM [falling, partial curve, poor fit].

For `Cc1ccc(NC(=O)COC(=O)c2cccc3c(=O)c(C)c(-c4ccccc4)oc23)cc1`, the AC50 [1] was 11.2 µM [rising, partial curve] and the AC50 [2] was 14.1 µM [rising, single point].

In the case of `C/C(=N\Nc1ccc(C(F)(F)F)cn1)c1ccc(S(=O)(=O)NCc2ccco2)cc1`, the AC50 [1] is reported as 5.62 µM [rising, partial curve] and the AC50 [2] is reported as 17.8 µM [rising, partial curve].

With `CCOC(=O)N1CCC(n2c(SCC(=O)Nc3ccccc3OC)nc3ccccc3c2=O)CC1` the AC50 [1] was 11.2 µM [rising, partial curve, poor fit] and the AC50 [2] was 22.4 µM [rising, partial curve].

For `O=C(CC1c2ccccc2Oc2ccccc21)NCc1ccco1`, the AC50 [2] was 31.6 µM [rising, single point].

With `CCOC(=O)c1cnc2ccc(OCC)cc2c1NCc1ccccc1` the AC50 [1] was 14.1 µM [rising, single point] and the AC50 [2] was 11.2 µM [rising, partial curve].

For `COc1ccc(CN2CCN(C(c3ccc(F)cc3)c3ccc(F)cc3)CC2)c(OC)c1OC`, the AC50 [2] was 10 µM [rising, partial curve, poor fit].

With `O=S(=O)(Nc1ccc2c(c1)OCCO2)c1ccc(Br)s1` the AC50 [2] was 35.5 µM [rising, single point].

With `CCOc1cc(N2CCOCC2)c(OCC)cc1NC(=O)CN1CCc2ccccc2C1` the AC50 [1] was 10 µM [rising, single point] and the AC50 [2] was 11.2 µM [rising, single point].
